Article PMC4770304
No constants are given. Whether binding was seen depends on the method and setting. In cells and extracts the contact can be indirect. A result given as binding can be weak or reduced; the word gives no strength.

Chains of the proteins cited; added tags and fusions are not shown. Lines headed by an entry give the natural chain unless they say otherwise; changes in a name come on top.
UniProt Q27J81: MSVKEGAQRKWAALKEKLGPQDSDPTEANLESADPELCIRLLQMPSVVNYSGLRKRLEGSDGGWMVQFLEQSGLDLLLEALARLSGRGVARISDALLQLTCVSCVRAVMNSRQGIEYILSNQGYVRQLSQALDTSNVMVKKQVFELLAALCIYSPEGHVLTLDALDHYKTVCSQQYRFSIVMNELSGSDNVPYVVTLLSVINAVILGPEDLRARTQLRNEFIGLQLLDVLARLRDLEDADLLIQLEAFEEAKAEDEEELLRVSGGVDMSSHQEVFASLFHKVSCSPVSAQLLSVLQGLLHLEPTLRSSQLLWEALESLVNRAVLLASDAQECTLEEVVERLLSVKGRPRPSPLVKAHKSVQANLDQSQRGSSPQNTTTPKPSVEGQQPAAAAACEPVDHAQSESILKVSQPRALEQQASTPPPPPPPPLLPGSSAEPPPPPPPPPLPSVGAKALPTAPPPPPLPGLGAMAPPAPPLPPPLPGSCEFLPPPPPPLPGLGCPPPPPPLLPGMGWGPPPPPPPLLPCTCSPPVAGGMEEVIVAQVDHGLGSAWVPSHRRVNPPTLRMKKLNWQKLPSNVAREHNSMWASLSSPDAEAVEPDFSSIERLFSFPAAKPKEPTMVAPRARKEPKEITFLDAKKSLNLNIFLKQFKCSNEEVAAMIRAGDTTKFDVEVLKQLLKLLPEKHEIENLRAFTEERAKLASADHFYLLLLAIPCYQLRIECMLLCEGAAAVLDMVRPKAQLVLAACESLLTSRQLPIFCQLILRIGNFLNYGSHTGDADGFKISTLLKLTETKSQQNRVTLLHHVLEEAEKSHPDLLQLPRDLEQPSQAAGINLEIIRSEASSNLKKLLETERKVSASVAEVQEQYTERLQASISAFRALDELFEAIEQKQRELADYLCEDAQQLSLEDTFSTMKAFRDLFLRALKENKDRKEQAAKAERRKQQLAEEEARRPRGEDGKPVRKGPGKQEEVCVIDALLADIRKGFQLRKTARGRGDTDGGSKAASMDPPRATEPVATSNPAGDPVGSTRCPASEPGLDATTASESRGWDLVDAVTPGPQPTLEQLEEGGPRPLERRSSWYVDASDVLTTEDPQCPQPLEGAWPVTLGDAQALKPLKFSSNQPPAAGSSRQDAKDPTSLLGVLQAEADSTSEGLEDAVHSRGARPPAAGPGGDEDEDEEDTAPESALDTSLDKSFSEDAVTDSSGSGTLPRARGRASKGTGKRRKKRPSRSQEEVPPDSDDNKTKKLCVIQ
UniProt P60953: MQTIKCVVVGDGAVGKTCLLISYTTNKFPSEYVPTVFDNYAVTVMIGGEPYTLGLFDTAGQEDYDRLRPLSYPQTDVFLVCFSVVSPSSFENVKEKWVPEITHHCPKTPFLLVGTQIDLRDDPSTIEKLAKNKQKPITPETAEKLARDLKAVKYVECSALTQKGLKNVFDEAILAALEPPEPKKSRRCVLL

Biological target: GFP–INF2–WT expressed in HEK293T cells (UniProt Q27J81)
Assay: co-IP; HEK293T transfected with GFP–INF2 (WT or mutant), co-transfected with HACdc42QL or a control plasmid; GFP-Trap agarose, 1 h at 4°C (10 mM Tris pH 7.5, 150 mM NaCl, 0.5 mM EDTA, 2% NP40, 10% glycerol); blots

binding: binds
Substance: HACdc42QL (active form of cdc42) (from UniProt P60953)
